{"source": "patent US10583210B2", "about": "“Auger electron therapy for glioblastoma” (Syddansk Universitet, priority 2014, dated 2020)", "origin": "cited, not measured here", "tested_on": "glioblastoma", "details": "surgical resection, external radiotherapy, concurrent and adjuvant TMZ; cited from earlier work", "note": "At least one structure is not confirmed: it was looked up by name or label, or the drawing left a doubt."}
{"compound": "Cn1nnc2c(C(N)=O)ncn2c1=O", "note": "[TMZ, temozolomide]", "values": [{"measurement": "overall median survival", "result": 14, "unit": "months"}]}
